According to PubChem BioAssay AID1487 (National Center for Advancing Translational Sciences (NCATS), 2009):
This is one part of the list. These are further read-outs of the screen, such as a control signal, another cell line or another target. No call is given for them. The list favours compounds with an active or inconclusive main result. Words in brackets tell the shape of the fitted curve; partial curves, single points and poor fits give uncertain potencies.

Experiment: qHTS Assay for Modulators of Lamin A Splicing
Conditions: HeLa LMNA splicing GFP/RFP minigene ratio, 48 h
How it was run: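 S3 HeLa cells stably expressing lamin A-EGFP splicing minigene plus DsRed2, 600 cells/well, 48 h compound exposure at 37C. Laser-scanning cytometry; analysed as GFP (500-530 nm)/RFP (575-640 nm) total intensity ratio; 0.5% DMSO vehicle.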

[1] = measured here: RFP viability control channel
[2] = measured here: GFP splicing reporter channel

Row | Compound | AC50 [1] | AC50 [2]
1 | CC1=Nc2ccccc2/C1=C/c1nc(-c2ccc(C)s2)oc1O | 15.8 µM [rising, partial curve, poor fit] | –
2 | Cc1ccccc1S(=O)(=O)NC1OC(=O)C(Oc2ccccc2)=C1Br (stereo unspecified) | – | 35.5 µM [falling, single point]
3 | COc1ccc(NS(=O)(=O)c2cc(NC(=O)[C@@H](NC(=O)c3ccccc3)C(C)C)ccc2C)cc1 | 12.6 µM [rising, partial curve, poor fit] | –
4 | COc1ccc(OC)c(NC(=O)c2cc3oc4ccccc4c3cc2O)c1 | 10 µM [falling, partial curve, poor fit] | 7.94 µM [falling, partial curve, poor fit]
5 | COc1cc(/C=C2\SC(=Nc3ccccc3)N(Cc3ccco3)C2=O)ccc1OC(C)C(=O)O (stereo unspecified) | 5.62 µM [falling, full curve, poor fit] | 10 µM [falling, partial curve, poor fit]
6 | CCOC(=O)C1(Cc2cccc(OC)c2)CCCN(C(=O)c2cc(C)[nH]n2)C1 (stereo unspecified) | 3.55 µM [falling, partial curve, poor fit] | 5.01 µM [falling, partial curve, poor fit]
7 | CCC(c1nnnn1Cc1ccco1)N1CCN(c2cc(Cl)ccc2C)CC1 (stereo unspecified) | – | 35.5 µM [rising, single point]
8 | Nc1nnc(CSCc2ccc(Cl)cc2Cl)s1 | – | 0.0562 µM [rising, full curve, poor fit]
9 | CCN(CC)c1ccc(NC(=S)NC(=O)c2cccs2)cc1 | 15.8 µM [rising, single point] | 14.1 µM [rising, single point]
10 | CCOc1ccc(-c2c(C)nn3c(C)c(C(=O)NCCN(C)C)cnc23)cc1OCC | 0.00501 µM [falling, full curve, poor fit] | –
11 | O=c1c(-c2ccccc2)c1-c1ccccc1 | 35.5 µM [falling, partial curve, poor fit] | 4.47 µM [rising, single point]
12 | COc1ccc2c(c1)-c1c(sn(-c3ccccc3)c1=S)C(C)(C)N2 | 14.1 µM [rising, single point] | 14.1 µM [rising, single point]
13 | COc1ccc(N2CCN(CC(=O)Nc3nc4c(s3)CC(C)CC4)CC2)cc1 (stereo unspecified) | 15.8 µM [rising, single point] | 7.94 µM [rising, partial curve, poor fit]
14 | Cc1nc2ccccc2n1CC(O)COCC1CC=CCC1 (stereo unspecified) | 7.08 µM [rising, partial curve] | –
15 | Cc1ccc(OCCN2CCN(c3nc(NCc4ccco4)c4ccccc4n3)CC2)cc1 | 35.5 µM [rising, single point] | 12.6 µM [rising, partial curve]
16 | O=C(c1ccc(Br)cc1)N(Cc1ccco1)c1ccccn1 | 0.00891 µM [falling, full curve, poor fit] | –
17 | CN1C(=O)Cc2cc(S(=O)(=O)NCc3ccccc3Cl)ccc21 | 12.6 µM [rising, single point] | 11.2 µM [rising, partial curve, poor fit]
18 | CC(C)c1ccc(OCC(=O)N(c2ccccn2)C2CCCCC2)cc1 | 22.4 µM [rising, single point] | 14.1 µM [rising, single point]
19 | C=C1C(C(=O)Nc2ccc(OCC)cc2)C1C(=O)Nc1ccc(OCC)cc1 (stereo unspecified) | 0.00355 µM [rising, full curve, poor fit] | –
20 | CCc1ccc(-c2nnn(Cc3nc4ccccc4s3)n2)cc1 | 22.4 µM [rising, single point] | –
21 | CC/C(C)=N/Nc1nc2c(c(=O)[nH]c(=O)n2C)n1CCc1ccccc1 | 15.8 µM [rising, single point] | –
22 | CCOC(=O)c1oc2ccccc2c1CN1CCN(C(=O)c2ccccc2)CC1 | 12.6 µM [rising, single point] | –
23 | CCOc1cc(CNc2ccc(N3CCOCC3)cc2)cc(Br)c1OCC | 35.5 µM [rising, partial curve] | 5.01 µM [rising, single point]
24 | Oc1cc(O)c2c(c1)OC(c1ccc(O)c(O)c1)C(O)C2 (stereo unspecified) | 11.2 µM [rising, partial curve, poor fit] | 31.6 µM [falling, single point]
25 | Cc1cc(C)nc(N2CCC(C(=O)Nc3ccc4c(c3)OCO4)CC2)n1 | 35.5 µM [rising, single point] | 15.8 µM [rising, single point]
26 | CCOc1cc(S(=O)(=O)NC2CCCC2)ccc1Cl | 0.02 µM [rising, full curve, poor fit] | –

Two entries picked at random from those above, as already listed:
Row | Compound | AC50 [1] | AC50 [2]
23 | CCOc1cc(CNc2ccc(N3CCOCC3)cc2)cc(Br)c1OCC | 35.5 µM [rising, partial curve] | 5.01 µM [rising, single point]
15 | Cc1ccc(OCCN2CCN(c3nc(NCc4ccco4)c4ccccc4n3)CC2)cc1 | 35.5 µM [rising, single point] | 12.6 µM [rising, partial curve]

Next part.

Row | Compound | AC50 [1] | AC50 [2]
27 | Cc1c(Cl)cccc1NC(=S)NCc1ccccc1Cl | 35.5 µM [rising, single point] | 31.6 µM [rising, single point]
28 | Cn1nc(C(=O)Oc2cc(=O)n(C)c3ccccc23)c2ccccc2c1=O | – | 0.316 µM [rising, full curve]
29 | CCOc1ccccc1Oc1ncnc2c1oc1ccccc12 | 6.31 µM [falling, partial curve, poor fit] | –
30 | COc1ccc(CCCc2nnc(SCC(=O)Nc3cc(C)c(C)cc3Br)o2)cc1 | 12.6 µM [rising, single point] | –
31 | C=C1C(=O)OC2C1CC/C(C)=C/CCC1(C)OC21 (stereo unspecified) | 5.01 µM [falling, full curve] | 3.16 µM [falling, full curve]
32 | CCOc1ccccc1NCc1nnc2n1CCCCC2 | 28.2 µM [rising, single point] | 0.891 µM [rising, full curve, poor fit]
33 | CCOC(=O)c1cnc2ccc(OCC)cc2c1N1CCN(c2ccccc2)CC1 | – | 25.1 µM [rising, partial curve]
34 | O=C(NC(=S)NCCC1=CCCCC1)c1cncc(Br)c1 | 35.5 µM [rising, single point] | 22.4 µM [rising, single point]
35 | c1ccc2c(c1)[nH]c1c(N3CCC4(CC3)OCCO4)ncnc12 | 12.6 µM [rising, partial curve] | –
36 | O=C(N/N=C1\C2CN3CCN(C2)CC1(c1ccccc1)C3)Nc1ccccc1 | 5.62 µM [rising, partial curve] | 1.12 µM [rising, full curve, poor fit]
37 | O=C(c1cccc(Cl)c1)N1CCCC(c2ccc(Cl)cc2)=N1 | 25.1 µM [rising, single point] | 12.6 µM [rising, single point]
38 | CC/C(C)=C1\SC(N2CCN(c3cccc(C(F)(F)F)c3)CC2)=NC1=O | 5.62 µM [falling, partial curve, poor fit] | –
39 | CC(C)C(NS(=O)(=O)c1c(Cl)cccc1Cl)C(=O)OCC(=O)c1c[nH]c2ccccc12 (stereo unspecified) | 20 µM [rising, partial curve, poor fit] | –
40 | CCCOC(=O)c1cccc(NC(=O)CSc2nnc3cc(C)c4ccccc4n23)c1 | – | 1.41 µM [falling, full curve, poor fit]
41 | CCCCCCNC(=O)CCCCCNS(=O)(=O)c1ccc(OC)cc1 | – | 31.6 µM [rising, single point]
42 | CC1(CC(=O)N/N=C/c2ccc(-c3cccc(C(F)(F)F)c3)o2)OCCO1 | 7.94 µM [rising, single point] | –
43 | Cc1cc(/C=N/n2cnnc2)c(C)n1-c1ccc(OCc2ccc(F)cc2)cc1 | 2.51 µM [rising, full curve] | 0.794 µM [rising, partial curve]
44 | Cc1ccccc1N1C(=O)CSC1=C(C#N)C#N | 35.5 µM [rising, partial curve, poor fit] | 11.2 µM [rising, partial curve]
45 | CC(C)OC(=O)Cn1nnc2c(cnn2-c2ccccc2)c1=O | 25.1 µM [rising, single point] | –
46 | Cn1c(SCc2ccccn2)nnc1-c1ccncc1 | 3.98 µM [rising, single point] | –
47 | CCCCC(c1nnnn1CS(=O)(=O)c1ccc(C)cc1)N1CCN(c2ccccc2)CC1 (stereo unspecified) | 8.91 µM [rising, partial curve] | –
48 | CCOC(=O)c1c(-c2ccccc2)csc1NC(=O)CSc1nc(C)cc(C)n1 | 31.6 µM [rising, partial curve] | 22.4 µM [rising, single point]
49 | CC[C@@H]1O[C@]2(C=C[C@@H]1C)C[C@H]1C[C@H](CC=C(C)[C@@H](O[C@@H]3C[C@H](OC)[C@H](O[C@@H]4C[C@H](OC)[C@H](O)[C@H](C)O4)[C@H](C)O3)[C@@H](C)C=CC=C3CO[C@@H]4[C@@H](O)C(C)=C[C@@H](C(=O)O1)[C@]34O)O2 | 0.00447 µM [falling, full curve, poor fit] | 0.0141 µM [falling, full curve, poor fit]
50 | N=c1c2c(-c3ccccc3)c(-c3ccccc3)oc2ncn1CCCN1CCOCC1 | – | 7.08 µM [rising, partial curve]
51 | CS(=O)(=O)c1ccccc1C(=O)NC1CCCc2ccccc21 (stereo unspecified) | 6.31 µM [rising, partial curve, poor fit] | –
52 | CN1c2ccccc2C(C)(C)C12C=Nc1c(cc(N3CCOCC3)c3ccccc13)O2 (stereo unspecified) | 8.91 µM [falling, partial curve] | 11.2 µM [falling, single point]
